Patent publication US9550815B2, “ABC terpenoid transporters and methods of using the same” (priority 2012, dated 2017)
At least one structure is not confirmed: it was looked up by name or label, or the drawing left a doubt.

What was measured:
mutant Δgcabc-g1 = assay: Growth on MEA with individual diterpenes; format: cell-based, Grosmannia clavigera; conditions: individual diterpene in MEA (0.1% per FIG. 8), pH ~8.0
Procedure: (§1) Growth rates were examined for G. clavigera WT and the mutant Δgcabc-g1 grown on MEA in the presence or absence of 200 μL of abietic acid, dehydroabietic acid and isopimaric acid as described in Example 3.A.2. Each diterpene was dissolved in a basic NaOH solution before being added into the MEA medium; the final pH of the medium was ˜8.0. Growth rates were calculated daily (mm/day). The results are shown in FIG. 8, which indicates growth rate in mm/24 hr for the average of three replicates. Error bar represents standard deviation.

G. clavigera WT = assay: Growth on MEA with individual diterpenes; format: cell-based, Grosmannia clavigera; conditions: individual diterpene in MEA (0.1% per FIG. 8), pH ~8.0
Procedure: as §1

Compound: CC(C)c1ccc2c(c1)CC[C@H]1[C@](C)(C(=O)O)CCC[C@]21C [dehydroabietic acid]
- growth inhibition, mutant Δgcabc-g1 (mutant Δgcabc-g1): only slightly inhibited growth
- growth inhibition, G. clavigera WT (G. clavigera WT): only slightly inhibited growth
